Experimental data as given in PubChem BioAssay AID493014 (National Center for Advancing Translational Sciences (NCATS), 2011).
Some of the results follow. These are further read-outs of the screen, such as a control signal, another cell line or another target. No call is given for them. The list favours compounds with an active or inconclusive main result. Potencies come from curve fits of mixed quality, noted in brackets.

Assay: qHTS Assay to Find Inhibitors of Chronic Active B-Cell Receptor Signaling
Conditions: ABC-DLBCL IkBa-CBG/CBR reporter, luminescence ratio (green luciferase fused to IkBa over red control in TMD8 lymphoma cells), 4 h
How it was run: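 Cell line TMD8 (human ABC DLBCL), stably expressing tet-inducible CBG68-IkBa fusion and CBR; IMDM/0.5% FBS; cpd up to 46 uM; dox induction, 4 h, 37C/5% CO2; dual luminescence; green/red ratio; MG132 control.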

[1] = measured here: CBR red luminescence, cell number
[2] = measured here: IkBa-CBG green luminescence

| SMILES | AC50 [1] | AC50 [2] |
| --- | --- | --- |
| O=c1nc(/C=C/c2ccccc2C(F)(F)F)cc(C(F)(F)F)[nH]1 | 4.47 µM [falling, full curve, poor fit] |  |
| CCOc1ccccc1OCCCOc1ccc(C)cc1Cl | 12.6 µM [rising, partial curve] |  |
| CC(C)(C)c1cc(NC(=O)Nc2ccccc2OC(F)(F)F)no1 | 7.08 µM [rising, partial curve, poor fit] |  |
| Cc1cc(C)nc(SCc2ccc(C(=O)N/N=C/c3ccncc3)cc2)n1 |  | 10 µM [falling, partial curve, poor fit] |
| CSCCC(NC(=O)c1ccccc1Br)C(=O)NNC(=O)c1csc(N2CCOCC2)n1 (configuration not stated) | 14.6 µM [rising, partial curve, poor fit] |  |
| CS(=O)(=O)c1ccc2nc(NC(=O)c3cccs3)sc2c1 | 16.4 µM [falling, partial curve] |  |
| c1ccc(-n2ncc3c(NCCCN4CCOCC4)ncnc32)cc1 | 35.5 µM [falling, single point] |  |
| O=C(N/N=C/c1cccc(OCc2ccccc2)c1)c1ccc(Br)o1 | 20 µM [falling, single point] |  |
| O=C(CN(Cc1ccccc1)S(=O)(=O)c1ccccc1)NC1CC1 | 23.1 µM [rising, single point] |  |
| Nc1nn(S(=O)(=O)c2cccc3nsnc23)cc1-c1ccc(Br)cc1 | 0.82 µM [falling, partial curve, poor fit] |  |
| COc1cccc2cc(C(=O)Nc3cccnc3N3CCOCC3)c(=O)oc12 | 2.31 µM [rising, partial curve] |  |
| Cc1cc(C)c(C(=O)/C=C/C=C/c2ccccc2)c(=O)[nH]1 | 29.1 µM [falling, single point] | 18.4 µM [falling, single point] |
| Cc1ccc(C(=O)OCC(=O)Nc2cc(C(C)(C)C)nn2-c2ccccc2)c(O)c1 | 18.4 µM [falling, single point] |  |
| Cc1ccc(NC(=O)c2nc[nH]c2C(=O)N[C@@H](C)c2ccccc2)cc1 | 0.1 µM [rising, full curve, poor fit] |  |
| CC(C)C(=O)Nc1ccc(N2CCCC2)c(Cl)c1 | 10 µM [rising, partial curve, poor fit] |  |
| Cc1cc(=O)c(C(=O)Nc2cccc(N3CCCC3=O)c2)nn1-c1ccccc1Cl | 16.4 µM [rising, single point] | 4.61 µM [falling, partial curve] |
| CCCS(=O)(=O)c1c(S(=O)(=O)CCC)c2c(N)cccn2c1C(=O)c1ccc(Br)cc1 | 3.26 µM [falling, partial curve, poor fit] | 25.9 µM [rising, partial curve, poor fit] |
| CCC1Sc2ccccc2N(CC(=O)NC2CCCC2)C1=O (configuration not stated) | 0.103 µM [falling, full curve, poor fit] |  |
| Nc1nc(SCc2ccc(Cl)c(Cl)c2)n[nH]1 | 16.4 µM [rising, partial curve, poor fit] |  |
| O=C(COC(=O)C(c1ccccc1)c1ccccc1)NCc1ccco1 | 35.5 µM [falling, single point] |  |
| COc1cc(OC)cc(C(=O)NCCCN2CCOCC2)c1 | 29.1 µM [rising, partial curve, poor fit] |  |

Filtered by structure: those above with sulfur.

| SMILES | AC50 [1] | AC50 [2] |
| --- | --- | --- |
| Cc1cc(C)nc(SCc2ccc(C(=O)N/N=C/c3ccncc3)cc2)n1 |  | 10 µM [falling, partial curve, poor fit] |
| CSCCC(NC(=O)c1ccccc1Br)C(=O)NNC(=O)c1csc(N2CCOCC2)n1 (configuration not stated) | 14.6 µM [rising, partial curve, poor fit] |  |
| CS(=O)(=O)c1ccc2nc(NC(=O)c3cccs3)sc2c1 | 16.4 µM [falling, partial curve] |  |
| O=C(CN(Cc1ccccc1)S(=O)(=O)c1ccccc1)NC1CC1 | 23.1 µM [rising, single point] |  |
| Nc1nn(S(=O)(=O)c2cccc3nsnc23)cc1-c1ccc(Br)cc1 | 0.82 µM [falling, partial curve, poor fit] |  |
| CCCS(=O)(=O)c1c(S(=O)(=O)CCC)c2c(N)cccn2c1C(=O)c1ccc(Br)cc1 | 3.26 µM [falling, partial curve, poor fit] | 25.9 µM [rising, partial curve, poor fit] |
| CCC1Sc2ccccc2N(CC(=O)NC2CCCC2)C1=O (configuration not stated) | 0.103 µM [falling, full curve, poor fit] |  |
| Nc1nc(SCc2ccc(Cl)c(Cl)c2)n[nH]1 | 16.4 µM [rising, partial curve, poor fit] |  |

Full records, looked up by structure.
O=C(COC(=O)C(c1ccccc1)c1ccccc1)NCc1ccco1 is listed as AC50 [1]: 35.5 µM [falling, single point]
CSCCC(NC(=O)c1ccccc1Br)C(=O)NNC(=O)c1csc(N2CCOCC2)n1 (configuration not stated) is listed as AC50 [1]: 14.6 µM [rising, partial curve, poor fit]

(further entries)

| SMILES | AC50 [1] | AC50 [2] |
| --- | --- | --- |
| C/C=C/c1ccc(OCC(=O)Nc2cc(Cl)ccc2-n2cncn2)c(OC)c1 | 1.46 µM [rising, full curve, poor fit] |  |
| CN(C)c1cc(-c2ccc(Br)cc2)oc(=O)c1Cl | 1.78 µM [rising, full curve, poor fit] |  |
| O=C(COC(=O)C1CCCO1)Nc1cccc(C(F)(F)F)c1 (configuration not stated) | 6.51 µM [falling, single point] |  |
| CCOC(=O)Nc1sc(C)c(C)c1C(=O)OCC | 29.1 µM [rising, single point] |  |
| O=C(CN(C(=O)CCC(=O)Nc1nccs1)c1ccccc1F)NCc1ccccc1 | 0.501 µM [falling, full curve, poor fit] |  |
| CCOc1ccc(CC(=O)OCc2cc(=O)n3cc(Br)ccc3n2)cc1 | 1 µM [rising, partial curve, poor fit] |  |
| COc1ccc(Br)cc1C(=O)Nc1ccc(C(=O)O)cc1 | 5.01 µM [falling, partial curve] |  |
| COc1ccccc1/C=C/C(=O)NNC(=O)c1cccs1 | 1 µM [falling, full curve] |  |
| O=C(NC(=S)Nc1ccc2cn[nH]c2c1)c1ccccc1 | 11.2 µM [falling, partial curve] |  |
| Cc1ccc(SC(CC(=O)c2ccc(C(C)(C)C)cc2)C(=O)O)cc1 (configuration not stated) | 10 µM [falling, partial curve, poor fit] | 31.6 µM [rising, single point] |
| Cc1[nH]nc2c1C(c1ccco1)C(C#N)=C(N)O2 (configuration not stated) | 7.94 µM [falling, partial curve, poor fit] |  |
| CC(=O)Oc1ccc2ccccc2c1C(NC(=O)Cc1ccccc1)c1ccccc1Cl (configuration not stated) | 0.112 µM [falling, full curve, poor fit] |  |
| NC(=O)c1ccc(N=Cc2ccc([N+](=O)[O-])s2)cc1 | 16.4 µM [falling, partial curve] |  |
| CC(C)OC(=O)Cn1c(=O)oc2ccccc21 | 2.06 µM [rising, partial curve, poor fit] |  |
| CSc1nc2c(ccc3ccccc32)o1 | 20.6 µM [rising, single point] |  |
| COC(=O)[C@H]1[C@H]2C[C@@H]3c4[nH]c5cc(OC)ccc5c4CCN3C[C@H]2C[C@@H](OC(=O)c2cc(OC)c(OC)c(OC)c2)[C@@H]1OC | 29.1 µM [falling, single point] |  |
| Cc1cc(C2C(C#N)=C(N)OC3=C2C(=O)CCC3)c(C)s1 (configuration not stated) | 0.164 µM [falling, full curve, poor fit] |  |
| O=C(CC1SC(=O)NC1=O)Nc1ccc(Cl)cc1 (configuration not stated) | 14.1 µM [falling, partial curve, poor fit] |  |
| O=C(COc1ccccc1C(=O)Nc1ccccc1)NCCc1ccccc1 | 35.5 µM [rising, single point] |  |
| O=C(N/N=C/c1oc(O)c2ccccc12)c1ccccc1 | 7.08 µM [falling, full curve] |  |
| COc1cc(SC)ccc1C(=O)Nc1ccccn1 | 7.94 µM [falling, partial curve] |  |

| SMILES | AC50 [1] | AC50 [2] |
| --- | --- | --- |
| Cc1ccc(NC(=O)n2ncc3c(C)cccc32)c(C)c1 | 0.251 µM [rising, full curve, poor fit] |  |
| Cc1cc(C)nc(-n2ncc3c2CC(c2ccccc2C)CC3=O)n1 (configuration not stated) | 3.26 µM [rising, single point] |  |
| Cc1nn(Cc2ccc(C(=O)NC3CCCCC3)o2)c(C)c1Br | 29.1 µM [falling, single point] |  |
| Cc1cc(/C=N/NC(=O)C(O)(c2ccccc2)c2ccccc2)c(C)n1-c1ccc(C(=O)O)cc1 | 20.6 µM [falling, partial curve, poor fit] |  |
| COc1cc(C2Nc3ccc4ncccc4c3C3=C2C(=O)CCC3)ccc1O (configuration not stated) | 35.5 µM [rising, single point] | 22.4 µM [falling, single point] |
| COC(=O)C(CC(=O)c1ccc(Br)cc1)n1nc(C)cc1C (configuration not stated) | 22.4 µM [falling, single point] |  |
| Cc1ccc(NC(=O)N2CCCC2c2cccs2)cc1 (configuration not stated) | 35.5 µM [rising, single point] |  |
| CC(=O)Nc1ccc(NC(=O)C(C)OC(=O)c2cccs2)cc1 (configuration not stated) | 23.1 µM [rising, single point] |  |
| CSc1ncccc1C(=O)OCC(=O)Nc1cc(C(F)(F)F)ccc1N1CCOCC1 | 1 µM [rising, full curve, poor fit] |  |
| O=C(CCCc1ccccc1)NCCc1ccccc1 | 1 µM [rising, partial curve, poor fit] |  |
| NC(=O)CC(NC(=O)Cc1ccc(Br)cc1)c1ccc(NCCOc2ccccc2)c([N+](=O)[O-])c1 (configuration not stated) | 5.62 µM [rising, full curve] |  |
| O=C(NCCCN1CCCC1=O)Nc1ccc([N+](=O)[O-])cc1 | 7.94 µM [rising, partial curve, poor fit] |  |
| Cc1cc2ncn(/N=C/c3cc(Br)ccc3O)c2cc1C | 5.62 µM [falling, single point] |  |
| COC(=O)Cc1c[nH]c2cccc(OCC(O)CN(Cc3ccc([N+](=O)[O-])cc3)C(C)(C)C)c12 (configuration not stated) | 2.24 µM [falling, partial curve, poor fit] |  |
| NC(=S)N/N=C/c1coc2ccc(Br)cc2c1=O | 20 µM [rising, partial curve, poor fit] | 2.51 µM [rising, full curve, poor fit] |
| N#C/C(=C(/O)c1ccc(-c2cccc([N+](=O)[O-])c2)o1)c1nc2ccccc2s1 | 2.24 µM [falling, partial curve, poor fit] |  |
| COc1cccc(C(=O)Nc2ccc3nc4n(c(=O)c3c2)CCCC4)c1 | 7.94 µM [falling, partial curve] |  |
| CC(=O)O[C@H]1CC(C)(C)C(=C=C/C(C)=C/C=C/C(C)=C/C=C/C=C(C)/C=C/C=C(\C)C(=O)C[C@@]23O[C@]2(C)C[C@@H](O)CC3(C)C)[C@](C)(O)C1 | 0.708 µM [rising, full curve, poor fit] |  |
| CCC(=O)c1ccc(OCc2ccccc2)c(OC)c1 |  | 29.1 µM [falling, partial curve, poor fit] |
